# In all, about 400,000 compounds went through this assay and about 13,000 (3.2%) were called active. This list was built around the results that the source calls inconclusive (neither active nor inactive); the mix of calls is not that of the screen. Calls follow the shape of the dose curve; as a rule, active = well fitted cell-killing curve with a large enough effect; inconclusive = small, poorly fitted or top-dose-only effect, or effect the other way; inactive = flat fitted curve, though single readings scatter. A potency beside an inconclusive call is a rough fit, not a confirmed value.
# Assay: qHTS assay for MDR1-selective chemotherapeutics: Primary screen using the drug-selected MDR subline cells KB-V1; also: nearly all actives have a fitted effect of over 60% in size
# Conditions: KB-V1 MDR cells viability, CellTiter-Glo, 72 h; activity change, negative = cytotoxicity: at 46.1 µM (top of the series)
# Outline: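 KB-V1 cells (P-gp-expressing MDR subline of KB-3-1) in phenol-red-free DMEM with 10% FBS were exposed to library compounds over a concentration series for 72 h at 37 degrees C. Viability read by CellTiter-Glo luminescence; concentration-effect curves fitted after normalization.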
# % is scaled to controls: 0 for no effect and ±100 for the full control effect; potency is read from the fitted curve at half-maximal effect.
Structure (SMILES),Potency,"activity change, negative = cytotoxicity"
COCC(=O)NC1CCCCCC1,"inconclusive: 20.6 µM [rising, single point]",
CC(=O)NC(C)C12CC3CC(CC(CC(=O)O)(C3)C1)C2 (stereo unspecified),inactive,
Cc1cccc2cc(C#N)c(NCCNC(=O)c3ccccc3)nc12,"inconclusive: 5.8 µM [cytotoxic, partial curve]",
CCOc1cc(NC(=O)c2cccs2)c(OCC)cc1NC(=O)CCC(=O)NCC1CCCO1 (stereo unspecified),inactive,
Cc1ccc(S(=O)(=O)N2CCOCC2)cc1NC(=O)Cn1c(=O)ccn(Cc2ccccc2)c1=O,"inconclusive: 18.4 µM [cytotoxic, single point]",
CCN1C(C(=O)c2ccccc2)=C(NC(=O)c2ccc(Cl)cc2)c2ccccc2S1(=O)=O,"inconclusive: 25.9 µM [cytotoxic, single point]",
Brc1cccc(CN2CCCCCC2)c1,"inconclusive: 16.4 µM [rising, single point]",
N#Cc1cnn2c(-c3ccc(Cl)cc3Cl)ccnc12,active: 16.4 µM,
CN(C)c1nc2c(c(=O)[nH]c(=O)n2C)n1Cc1ccccc1Br,active: 20.6 µM,
Cc1c(C(=O)OCC(=O)NCc2ccco2)oc2ccccc12,"inconclusive: 23.1 µM [rising, single point]",
CC(C)(C)OC(=O)N(CCc1ccccc1)Cc1cccc(OCc2cccc(NC(=O)C3CC3)c2)c1,"inconclusive: 23.1 µM [cytotoxic, partial curve, poor fit]",
COC(=O)c1[nH]c2ccc(Cl)cc2c1NC(=O)C1CC1,"inconclusive: 23.1 µM [cytotoxic, partial curve]",
N=c1c2c3c(sc2ncn1CCN1CCOCC1)CCCC3,"inconclusive: 9.2 µM [cytotoxic, partial curve]",
c1ccc(Oc2c3ccccc3nc3ccccc23)cc1,"inconclusive: 29.1 µM [cytotoxic, single point]",
CSc1ccc(C(=O)C2CCCN(S(=O)(=O)c3c(C)noc3C)C2)cc1 (stereo unspecified),"inconclusive: 29.1 µM [cytotoxic, partial curve, poor fit]",
Cc1ccnn1-c1ccc(C(=O)NCc2ccccc2CN2CCOCC2)cc1,inactive,
O=C(Nc1ccc(N2CCOCC2)nc1)c1ccc(C(F)(F)F)cc1,active: 8.2 µM,
O=C(NC(=O)c1ccccc1)Nc1ccc(Cl)cn1,,inconclusive: 0.76%
O=C(/C=C/NNC(=O)c1ccccc1)c1ccc(Br)cc1,"inconclusive: 23.1 µM [cytotoxic, partial curve, poor fit]",
Cc1cc(C)c(OCC(=O)OCC(=O)N2CCN(C(=O)c3ccco3)CC2)c(C)c1,inactive,
Cc1cc(C)n(-c2ncnc3sc4c(c23)CC(C)CC4)n1 (stereo unspecified),"inconclusive: 18.4 µM [cytotoxic, single point]",
CC(=NNC(=O)c1ccncc1)c1ccc2ccccc2c1O,"inconclusive: 1.03 µM [cytotoxic, full curve]",
CCCN(CCC)c1cc(C)nc2nc(-c3ccc(Cl)cc3)nn12,inactive,

# Another view of some results above.
Structure (SMILES) | Potency | activity change, negative = cytotoxicity
COCC(=O)NC1CCCCCC1 | inconclusive: 20.6 µM [rising, single point] | 
CCOc1cc(NC(=O)c2cccs2)c(OCC)cc1NC(=O)CCC(=O)NCC1CCCO1 (stereo unspecified) | inactive | 
Cc1ccc(S(=O)(=O)N2CCOCC2)cc1NC(=O)Cn1c(=O)ccn(Cc2ccccc2)c1=O | inconclusive: 18.4 µM [cytotoxic, single point] | 
Cc1c(C(=O)OCC(=O)NCc2ccco2)oc2ccccc12 | inconclusive: 23.1 µM [rising, single point] | 
Cc1ccnn1-c1ccc(C(=O)NCc2ccccc2CN2CCOCC2)cc1 | inactive | 
O=C(NC(=O)c1ccccc1)Nc1ccc(Cl)cn1 |  | inconclusive: 0.76%
O=C(/C=C/NNC(=O)c1ccccc1)c1ccc(Br)cc1 | inconclusive: 23.1 µM [cytotoxic, partial curve, poor fit] | 
Cc1cc(C)c(OCC(=O)OCC(=O)N2CCN(C(=O)c3ccco3)CC2)c(C)c1 | inactive | 
CC(=NNC(=O)c1ccncc1)c1ccc2ccccc2c1O | inconclusive: 1.03 µM [cytotoxic, full curve] | 

# Next part

Structure (SMILES),Potency,"activity change, negative = cytotoxicity"
O=C(COc1ccc(F)cc1)NCC1(N2CCOCC2)CCCCC1,"inconclusive: 18.4 µM [cytotoxic, single point]",
CCC(C)(C)NC(=O)C(c1ccccc1)N(Cc1cccnc1)C(=O)c1csnn1 (stereo unspecified),active: 13 µM,
O=C(CCN1c2ccccc2Sc2ccccc21)Nc1ccccc1,"inconclusive: 18.4 µM [cytotoxic, single point]",
CCN(CC)S(=O)(=O)c1cccc(-c2nnc(SC(C)C#N)n2Cc2ccccc2)c1 (stereo unspecified),,inconclusive: -37.9% [cytotoxic]
COc1ccc(/C=C2\CCc3ccccc3C2=O)cc1Cn1nc(C)cc1C,active: 18.4 µM,
O=C(NCc1ccco1)c1ccc(-c2ccc(F)c(F)c2)c2ccoc12,inactive,
O=C(Nc1cccc(S(=O)(=O)N2CCCCC2)c1)c1ccc(OCC2CCCO2)cc1 (stereo unspecified),active: 8.2 µM,
C=CCn1c(Cc2cccs2)nnc1SCC(=O)NC1CC1,"inconclusive: 16.4 µM [rising, partial curve, poor fit]",
Cc1cc(CCC(=O)O)c(C)cc1CCC(=O)O,inactive,
Cc1ccc(Cl)cc1NC(=O)c1cccc(OC(F)F)c1,active: 18.4 µM,
COc1cccc(-c2cc(C(F)(F)F)n3nc(C(=O)N4CCCCC4c4cccnc4)cc3n2)c1 (stereo unspecified),"inconclusive: 13 µM [cytotoxic, partial curve]",
CC1=C(C(=O)Nc2ccc(C)cc2C)C(c2cccs2)n2nc(SCc3ccc(Cl)cc3)nc2N1 (stereo unspecified),"inconclusive: 7.31 µM [rising, partial curve]",
Cc1nc2ccc(C(=O)NC(C)(C)C)cn2c1N(C)C(=O)CCc1ccccc1,inactive,
N/C(=N\OC(=O)/C=C/c1ccc(Br)cc1)c1ccccn1,inactive,
C(=N\Nc1nc(N2CCOCC2)nc(N2CCOCC2)n1)/c1ccncc1,inactive,
Cc1ccc(NC(=O)C2CCN(C(=O)c3cnn(-c4ccccc4)c3-n3cccc3)CC2)cc1Cl,"inconclusive: 14.6 µM [cytotoxic, partial curve, poor fit]",
Cc1ccc(S(=O)(=O)N2CCOCC2)cc1N/N=C(\C#N)c1nc2ccccc2[nH]1,inactive,
COc1ccc(C2=NOC(Cn3c(Cc4ccc(Cl)cc4)nc4c3c(=O)n(C)c(=O)n4C)C2)cc1 (stereo unspecified),"inconclusive: 25.9 µM [cytotoxic, single point]",
COc1ccc2sc(C)nc2c1NC(C)=O,"inconclusive: 10.3 µM [rising, partial curve, poor fit]",
Cc1c(C(=O)NCc2ccccc2C(F)(F)F)sc(=O)n1Cc1cccc(C(F)(F)F)c1,"inconclusive: 18.4 µM [cytotoxic, partial curve]",
O=C(Nc1cccc(Cl)c1)Nc1nnc(-c2ccncc2)s1,"inconclusive: 18.4 µM [cytotoxic, single point]",
O=C(c1cc(-c2cccc(Cl)c2)nc2ccccc12)N1CCCC1,"inconclusive: 10.3 µM [cytotoxic, partial curve]",
Cc1ccc2c(c1)c1c(c(=O)n(-c3ccccc3C)c(=O)n1Cc1cccc(F)c1)n2C,inactive,

# Reference: PubChem BioAssay AID1347076 (National Center for Advancing Translational Sciences (NCATS), 2019)
